Test results: PubChem BioAssay AID1259354 (Paczesny and Yang Labs, IUPUI and University of Michigan, 2018)
Where “and” joins values, the source holds several entries; their conditions need not be identical. Identical values can stand only once. Out of some 78,000 compounds screened, about 1,800 (2.3%) were called active. Inconclusive means that the source gave no clear call. Such entries were picked first, then a sample of the others. Cut-off read from the data, not from the text of the source: active = inhibition above about 30%; inconclusive = mostly about 10% to 28%; inactive = weaker than that.

Amino acid sequences for entries named in this document (tags omitted). A change or cut given only in a name is not applied to a line headed by its entry.
UniProt Q01638: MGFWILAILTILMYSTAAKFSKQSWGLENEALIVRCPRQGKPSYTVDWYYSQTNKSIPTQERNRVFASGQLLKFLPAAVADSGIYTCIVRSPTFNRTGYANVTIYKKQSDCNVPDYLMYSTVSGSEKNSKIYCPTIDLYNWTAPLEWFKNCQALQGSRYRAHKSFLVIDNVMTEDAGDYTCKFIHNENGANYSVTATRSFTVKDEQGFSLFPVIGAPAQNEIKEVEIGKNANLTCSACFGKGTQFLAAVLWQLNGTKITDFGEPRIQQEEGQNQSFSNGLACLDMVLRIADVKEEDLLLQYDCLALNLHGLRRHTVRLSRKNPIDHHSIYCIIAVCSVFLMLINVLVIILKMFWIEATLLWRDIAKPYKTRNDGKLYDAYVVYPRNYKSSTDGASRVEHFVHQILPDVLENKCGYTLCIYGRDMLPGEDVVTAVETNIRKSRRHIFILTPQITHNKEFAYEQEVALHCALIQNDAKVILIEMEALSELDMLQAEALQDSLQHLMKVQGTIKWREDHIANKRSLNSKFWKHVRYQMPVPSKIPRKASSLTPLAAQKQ

What follows are compounds tested against Interleukin-1 receptor-like 1 (Homo sapiens) (UniProt Q01638) (assay: blocks human ST2 binding to IL-33, primary screen, biochemical, AlphaLISA (AID 1259354)). Settings: AlphaLISA ST2-Fc/biotin-IL-33 interaction, 1 h; at 17 µM, active compounds read high.
C=CCSc1nnc2c(n1)OC(c1cccc(OC)c1)N(C(C)=O)c1ccccc1-2 (centres undefined) was tested, and the inhibition was inconclusive: 23%.
In the case of Cc1c(NC(=O)c2ccccc2)cccc1[N+](=O)[O-], the inhibition is reported as “inactive”.
With O=C(/C=C/c1cc(Br)cs1)Nc1cccc(C(F)(F)F)c1 the inhibition was inconclusive: 26%.
With COc1ccc(N=Cc2cc([N+](=O)[O-])cc([N+](=O)[O-])c2O)cc1Cl the inhibition was inconclusive: 12%.
With CC(=O)c1c(F)c(F)c(Oc2ccc(C)cc2)c(F)c1N1CCOCC1 the inhibition was inconclusive: 20%.
COc1cc(C2C(C(=O)Nc3cc(C)ccn3)=C(C)NC3=C2C(=O)CCC3)cc(OC)c1OC (centres undefined) was tested, and the inhibition was “inactive”.
CN1C[C@@H](NC(=O)Nc2ccc(Cl)cc2)C[C@H]1c1nc(-c2ccccc2)no1 was tested, and the inhibition was “inactive”.
CCc1ccc(NC(=O)NCCc2nc3cccnc3n2C2CCCCC2)cc1 was tested, and the inhibition was inconclusive: 14%.
For CC(C(O)c1ccc(O)cc1)N1CCC(Cc2ccccc2)CC1 (centres undefined), the inhibition was inconclusive: 12%.
COc1ccc2nc(C)cc(N)c2c1 was tested, and the inhibition was inconclusive: 10%.
With CCN(CC)c1ccc(C(Nc2ccccn2)c2ccc3cccnc3c2O)cc1 (centres undefined) the inhibition was active: 36%.
For CCCCn1c(SCC(=O)NCC2CCCO2)nc2c(sc3ccccc32)c1=O (centres undefined), the inhibition was inconclusive: 12%.
Cc1nccn1-c1cc(C(F)(F)F)c(C#N)c2nc3ccccc3n12 was tested, and the inhibition was inconclusive: 26%.
In the case of O=c1[nH]c(NCc2ccco2)nnc1Cc1ccccc1, the inhibition is reported as “inactive”.
For O=S(=O)(Cc1ccccc1)N[C@H]1CO[C@H]2[C@@H]1OC[C@@H]2n1nnnc1Oc1ccc(-n2cncn2)cc1, the inhibition was inconclusive: 13%.
With CCc1ccc(NCN2C(=O)c3ccccc3C2=O)cc1 the inhibition was inconclusive: 20%.
For CCOc1cc(CN2CCCC(N3CCCC3=O)C2)cc(Cl)c1O (centres undefined), the inhibition was inconclusive: 10%.
With O=C(O)CCCNC(=O)/C(=C/c1ccc2c(c1)OCO2)NC(=O)c1ccccc1Cl the inhibition was inconclusive: 11%.
O=c1ccn([C@@H]2O[C@H](COP(=O)(O)OP(=O)(O)O)[C@@H](O)[C@H]2O)c(=O)[nH]1 was tested, and the inhibition was inconclusive: 20%.
For O=C(Nc1ccc2nc(-c3ccco3)c(-c3ccco3)nc2c1)N1CCSCC1, the inhibition was active: 30%.
O=C(O)C1C2C=CC(C2)C1C(=O)N1CCCC1 (centres undefined) was tested, and the inhibition was “inactive”.
With CCn1cc(C(=O)NCCCOC)c2cc(OC)c(OC)cc2c1=O the inhibition was inconclusive: 12%.
In the case of COc1ccc(-c2[nH]nc3c2C(c2ccc(SC)cc2)C(C#N)=C(N)O3)cc1 (centres undefined), the inhibition is reported as inconclusive: 12%.
With Cc1cc(=O)oc(C)c1C(=O)NCc1c(F)cc(F)cc1F the inhibition was inconclusive: 25%.
In the case of COc1ccc(NC(=O)Nc2cccnc2)cc1, the inhibition is reported as inconclusive: 11%.
With CC(C)N1C(=O)[C@@H]2[C@H](C1=O)[C@@H]1C(=O)C[C@H]2c2ccccc21 the inhibition was inconclusive: 11%.
CCCOc1ccc(C(=O)Nc2ccccc2Cl)cc1 was tested, and the inhibition was “inactive”.
For O=C(Nc1cccc(-c2cccc(Cl)c2)c1)C1CCN(C(=O)Cn2cccn2)CC1, the inhibition was inconclusive: 12%.
In the case of Cc1cc(N2CCC3(CC2)CNC(=O)O3)nc(-c2ccccc2)n1, the inhibition is reported as inconclusive: 21%.
In the case of COc1ccc(CC(=O)Nc2cc(N3CCCS3(=O)=O)ccc2C)cc1OC, the inhibition is reported as inconclusive: 16%.
With CC(=O)N1c2ccc(N=Cc3cc(Br)ccc3O)cc2CC1C (centres undefined) the inhibition was “inactive”.
For CN1C(=O)CC(=O)N(C)c2ccccc21, the inhibition was inconclusive: 20%.
With CC(=O)c1c(N2CCOCC2)nc(=O)n(-c2ccccc2)c1C the inhibition was inconclusive: 15%.
For O=S(=O)(Nc1ccc2c(c1)OCO2)c1ccc(Oc2ccc(Br)cc2)cc1, the inhibition was inconclusive: 20%.
In the case of OC(COc1ccc2c(c1)OCO2)CN1CCN(c2ccccc2F)CC1 (centres undefined), the inhibition is reported as inconclusive: 15%.
With CCc1nc(C)c(CC(=O)N2CCCC(N3CCCC3=O)C2)c(=O)[nH]1 (centres undefined) the inhibition was “inactive”.
For COc1cc(C=Nc2ccc(NC(C)=O)cc2)cc(OC)c1OC, the inhibition was inconclusive: 15%.
With O=C(NCc1ccc(Cl)cc1)c1cc(-c2cccs2)on1 the inhibition was inconclusive: 13%.
With COc1ccc2cc3cc(C(=O)Nc4cc(OC)c(OC)c(OC)c4)oc3nc2c1 the inhibition was inconclusive: 10%.
In the case of Cc1cccc(C2c3[nH]c4ccccc4c3CCN2C(=O)CCc2c(C)noc2C)c1 (centres undefined), the inhibition is reported as inconclusive: 21%.
With COc1ccccc1C(=O)Nc1ccc2c(c1)NC(=O)CC2c1ncc[nH]1 (centres undefined) the inhibition was “inactive”.
CCCC(=O)NCc1nc2ccccc2n1CC was tested, and the inhibition was inconclusive: 10%.
Cc1ccc2[nH]cc(-c3ccc(S(N)(=O)=O)s3)c2c1 was tested, and the inhibition was inconclusive: 11%.
CC1=C(C(N)=O)C(c2cccs2)n2nc(SCc3ccccc3)nc2N1 (centres undefined) was tested, and the inhibition was inconclusive: 11% and inconclusive: 10%.
In the case of CC(=O)NCCC1CN(Cc2nc3c(s2)CCCC3)CCO1 (centres undefined), the inhibition is reported as inconclusive: 10%.
In the case of OCc1cccc(-n2ccnc2-c2ccc(C3CCCCO3)s2)c1 (centres undefined), the inhibition is reported as inconclusive: 11%.
CCN(CC)C(=O)C[C@@H]1CCNC[C@@H]1Cc1cc(COc2ccccc2)on1 was tested, and the inhibition was inconclusive: 12%.
O=C(O)C[C@@H]1CCN(C(=O)Cc2ccccc2)C[C@@H]1CCN1CCN(c2ccc(F)cc2)CC1 was tested, and the inhibition was inconclusive: 19%.
With COc1cc(C=NS(=O)(=O)c2cccs2)cc(Br)c1O the inhibition was inconclusive: 20%.
O=[N+]([O-])c1cccnc1NCc1ccccc1 was tested, and the inhibition was active: 39%.
With CCn1cc(Cn2ccnc2C(C)Cc2ccc3c(c2)OCO3)cn1 (centres undefined) the inhibition was inconclusive: 14%.
In the case of O=C(NCc1ccccn1)c1ccc2c(c1)ncn2C1CCCC1, the inhibition is reported as “inactive”.
In the case of O=C(O)C1=CC(=C(c2ccc(O)c(C(=O)O)c2)c2ccc(O)c(C(=O)O)c2)C=CC1=O, the inhibition is reported as active: 89%.
For CC1Cc2cc(C3Nc4ccccc4C(=O)N3c3ccccc3)ccc2O1 (centres undefined), the inhibition was inconclusive: 16%.
For COc1ccc(-c2nc(N3CCCCCC3)nc3nn4c(C)cc(C)nc4c23)cc1, the inhibition was “inactive”.
CC(=O)N1CCC(C(=O)NC[C@@H]2C=C(C)[C@H](CC(=O)O)C[C@H]2C(C)C)CC1 was tested, and the inhibition was inconclusive: 19%.
With CN(CC1Cc2ccccc2O1)C(=O)c1ccc2oc(CCc3ccccc3)nc2c1 (centres undefined) the inhibition was inconclusive: 11%.
For O=C1CCC(C(=O)N2CCCC(CO)(Cc3ccc(F)cc3)C2)=NN1 (centres undefined), the inhibition was “inactive”.
For Cc1ccc(CNC(=O)c2sc3nc(-c4ccc(F)cc4)ccc3c2N)cc1, the inhibition was inconclusive: 21%.
O[C@@H]1C[C@@H](c2nc(-c3ccc(F)cc3)no2)N(Cc2ccc(F)cc2)C1 was tested, and the inhibition was inconclusive: 22%.
For N#CC1C(=O)NC(=O)C([n+]2ccccc2)C1c1cccc([N+](=O)[O-])c1 (centres undefined), the inhibition was inconclusive: 17%.
O=C(Nc1ccc(-c2cscn2)cc1)C1CCCN(C/C=C/c2ccccc2)C1 (centres undefined) was tested, and the inhibition was inconclusive: 15%.
With CCOc1ccc(/C=c2\sc3n(c2=O)CN(c2cccc(F)c2)CN=3)cc1 the inhibition was inconclusive: 22%.
Cc1ccc(OCC(O)C(C)NC(C)C)c2c1CCC2 (centres undefined) was tested, and the inhibition was “inactive”.
In the case of Oc1ccccc1-c1nc(-c2ccccc2)nc(-c2ccccc2)n1, the inhibition is reported as inconclusive: 12%.
In the case of Cc1cc(F)cc(-c2c(-c3ccccc3)ncn2CCCN2CCCC2=O)c1, the inhibition is reported as inconclusive: 13%.
For CCN(CC)C(=O)Cn1cnc2sc(C(=O)N3CCCCC3C)c(C)c2c1=O (centres undefined), the inhibition was inconclusive: 11%.
CC(C)NC(=O)C[C@@H]1O[C@H](CNS(C)(=O)=O)[C@@H](O)[C@H]1O was tested, and the inhibition was inconclusive: 22%.
In the case of Cc1cccn2c(=O)c3cc(C(=O)NCC(C)C)n(C)c3nc12, the inhibition is reported as “inactive”.
For COc1ccc(C(C)(C)C)cc1S(=O)(=O)N1CCN(c2nc(C)cc(Nc3ccc(C)cc3)n2)CC1, the inhibition was inconclusive: 14%.
With Cc1nc2ccc(C(=O)NCC3COc4ccccc4O3)cc2nc1C (centres undefined) the inhibition was inconclusive: 10%.
In the case of Cc1sc2nc(SCc3ccc(C(=O)NCCO)cc3)[nH]c(=O)c2c1C, the inhibition is reported as “inactive”.
In the case of CCC1(CC)OC(c2ccc3c(c2)OCO3)Nc2ccccc21 (centres undefined), the inhibition is reported as inconclusive: 20%.
For CC(=O)CSc1nnc(-c2ccc(Br)cc2)o1, the inhibition was “inactive”.
With CSc1cccc(CN(C)C(=O)[C@H](N)CC(C)C)c1 the inhibition was “inactive”.
With c1csc(C2=NN3COc4ccccc4C3C2)c1 (centres undefined) the inhibition was inconclusive: 29%.
With CCCc1nnc([C@H]2CCN(Cc3ccc(C)o3)C2)o1 the inhibition was “inactive”.
CCOC(=O)CCNC(=O)N1CCOC(c2ccc(Cl)cc2)C1 (centres undefined) was tested, and the inhibition was inconclusive: 18%.
In the case of O=C(c1cccs1)N1CCN=C1SCc1c(F)cccc1Cl, the inhibition is reported as “inactive”.
CCC1CN(CCC(=O)N2CCN(c3nc(C)cnc3C)CC2)Cc2ccc(Cl)cc2O1 (centres undefined) was tested, and the inhibition was inconclusive: 19%.
For CC(=O)Nc1ncc(S(=O)(=O)N2CCC(N3CCCC3=O)CC2)s1, the inhibition was “inactive”.
CC1=C[C@@H](CNS(=O)(=O)c2ccccc2)[C@H](C(C)C)C[C@H]1CC(=O)NCc1ccccn1 was tested, and the inhibition was inconclusive: 19%.
For O=[N+]([O-])c1ccc(NC2OC(CO)C(O)C2O)cc1 (centres undefined), the inhibition was “inactive”.
With COC(=O)C1=C(NC(=O)c2ccc(C)c(C)c2)CCS1 the inhibition was inconclusive: 16%.
In the case of NC(=O)C1(S(=O)(=O)c2ccccc2)CCCCC1, the inhibition is reported as inconclusive: 12%.
With O=C(NCCc1csc(-c2ncccn2)n1)C1CC2(CCNCC2)CN1 (centres undefined) the inhibition was inconclusive: 17%.
With Cc1cc(C)n(CCN(C)C(=O)CC2(c3ccccc3Cl)CC(=O)N(C3CCCC3)C2=O)n1 (centres undefined) the inhibition was inconclusive: 24%.
For CCOc1ccc(CN2CCSCC2)cc1, the inhibition was inconclusive: 12%.
In the case of Cc1c(CN2CCC3(CC2)C(=O)NCCN3C)[nH]c2c(C)cccc12, the inhibition is reported as active: 30%.
O=C1S/C(=C\c2ccc(O)cc2)C(=O)N1c1ccccc1 was tested, and the inhibition was inconclusive: 23%.
With O=C(O)c1ccccc1C(=O)c1ccc(Cl)c(Cl)c1 the inhibition was “inactive”.
In the case of O=C(CN1CCOCC1)NCc1cnn2ccccc12, the inhibition is reported as inconclusive: 12%.
For O=C1CC(N2CCN(Cc3ccccc3)CC2)C(=O)N1c1cccc(Cl)c1 (centres undefined), the inhibition was inconclusive: 11%.
In the case of CN(Cc1cnccn1)C(=O)CN(c1cccc(F)c1)S(C)(=O)=O, the inhibition is reported as inconclusive: 15%.
